Source: PubChem BioAssay AID1508588 (Peter MacCallum Cancer Centre, 2020)

Assay: 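Knock-downs boosting vemurafenib effects on melanoma cell growth or lactate release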 (primary screen)
System: human WM266.4 melanoma cells (BRAF V600 mutant)
Reagent: siRNA pool against human genes, 40 nM
Time to read-out: 96 h from transfection to read-out
Conditions: vemurafenib 300 nM (about IC25), added 48 h after transfection, for 48 h; comparison arm got DMSO vehicle only
Measurement: 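Ratios to non-targeting siRNA for cell gain, counted as DAPI nuclei after minus before drug and averaged over two replicates, and for absorbance-read medium lactate per cell; both binned into fold-change classes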
Reading the numbers: cell gain with vemurafenib: higher = more cell gain than with non-targeting siRNA; lactate per cell with vemurafenib: higher = more lactate made per cell
Rule for the call: 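Enhancement is called by pairing each knock-down's vehicle-arm and drug-arm fold-change classes for viability or glycolysis; which class combinations qualify is not given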
Meaning of the calls: active = enhances vemurafenib effect; inactive = no enhancement seen
This is one part, drawn at random, of about 18,000 reagents tested. Of all reagents, 790 (4.4%) are marked active. 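Calls rest on a combination of fold-change classes in drug and vehicle arms, not all shown here.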 Unmarked entries are inactive.

Against SELL, the entry reads cell gain with vemurafenib 0; lactate per cell with vemurafenib 0.
Silencing of MACROH2A2 gave: cell gain with vemurafenib 0.33; lactate per cell with vemurafenib 1.15.
Against VPS53, the entry reads cell gain with vemurafenib 0.63; lactate per cell with vemurafenib 0.9.
For PTGIR, the entry reads cell gain with vemurafenib 0.73; lactate per cell with vemurafenib 1.28.
Against BEST1, the values are cell gain with vemurafenib 0.17 (active); lactate per cell with vemurafenib 0.36.
ILDR1 showed cell gain with vemurafenib 0.48; lactate per cell with vemurafenib 1.
MGAM gave cell gain with vemurafenib 1.08; lactate per cell with vemurafenib 0.99.
Knock-down of PODN came out at: cell gain with vemurafenib 0.43; lactate per cell with vemurafenib 1.84.
XKRX gave cell gain with vemurafenib 0.9; lactate per cell with vemurafenib 0.5.
After knock-down of ACO1, the screen gave cell gain with vemurafenib 0.3; lactate per cell with vemurafenib 0.72.

Reprinted from the entries so far, 2 entries:
MGAM → cell gain with vemurafenib = 1.08; lactate per cell with vemurafenib = 0.99
PODN → cell gain with vemurafenib = 0.43; lactate per cell with vemurafenib = 1.84

The results go on.
Knock-down of APBB2 resulted in: cell gain with vemurafenib 0.12 (active); lactate per cell with vemurafenib 0.46.
OR4C12 gave cell gain with vemurafenib 0.37; lactate per cell with vemurafenib 1.72.
With knock-down of ZFAND3 the results were cell gain with vemurafenib 0.13; lactate per cell with vemurafenib 0.84.
With knock-down of RGCC, the screen gave cell gain with vemurafenib 0.62; lactate per cell with vemurafenib 0.54.
With knock-down of PDE1B, the screen gave cell gain with vemurafenib 0.63; lactate per cell with vemurafenib 0.46.
For HMBS, the entry reads cell gain with vemurafenib 0.36; lactate per cell with vemurafenib 1.05.
